Laboratory results reported in US11040106B2, “Conjugates of kinase inhibitors and cyanine dyes” (priority 2018, dated 2021).
For at least one compound, name, drawing or mass did not settle the structure.

Amino acid sequences for entries named in this document (tags omitted). Residues count along the entry.
UniProt P02768, 25-609: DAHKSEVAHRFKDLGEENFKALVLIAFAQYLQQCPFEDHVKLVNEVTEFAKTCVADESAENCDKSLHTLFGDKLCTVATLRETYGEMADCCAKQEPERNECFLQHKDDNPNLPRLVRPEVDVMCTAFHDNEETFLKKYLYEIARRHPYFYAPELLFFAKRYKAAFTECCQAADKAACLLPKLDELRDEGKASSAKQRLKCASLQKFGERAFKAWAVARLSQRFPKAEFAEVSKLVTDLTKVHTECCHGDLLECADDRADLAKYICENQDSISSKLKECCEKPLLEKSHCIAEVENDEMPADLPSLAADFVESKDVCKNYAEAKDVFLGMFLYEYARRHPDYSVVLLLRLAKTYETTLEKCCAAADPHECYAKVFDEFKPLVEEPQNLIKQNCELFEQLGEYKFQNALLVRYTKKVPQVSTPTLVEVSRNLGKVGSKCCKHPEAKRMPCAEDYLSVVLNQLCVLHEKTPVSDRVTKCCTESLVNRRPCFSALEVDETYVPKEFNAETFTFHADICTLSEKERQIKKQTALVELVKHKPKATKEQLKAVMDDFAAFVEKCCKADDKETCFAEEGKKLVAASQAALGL

Biological target: HSA (Homo sapiens, UniProt P02768)
Test: Non-covalent interaction with HSA followed by UV spectroscopy
Assay type: binding
Settings: 10 μM dye

CC1(C)C(/C=C/C2=C(Cl)C(=C/C=C3\N(CCCCCC(=O)O)c4ccccc4C3(C)C)/CCC2)=[N+](CCCCCC(=O)O)c2ccccc21 [Compound 1]
ratio with HSA at absorbance saturation: 1:1
